# The list shows a part of the results. Most values lie at the level of the controls, where differences are scatter.
# Protein sequences, listed by entry. Tags and fused reporters are not part of them. Lines headed by an entry give the natural chain unless they say otherwise; changes in a name come on top.
# UniProt P12282: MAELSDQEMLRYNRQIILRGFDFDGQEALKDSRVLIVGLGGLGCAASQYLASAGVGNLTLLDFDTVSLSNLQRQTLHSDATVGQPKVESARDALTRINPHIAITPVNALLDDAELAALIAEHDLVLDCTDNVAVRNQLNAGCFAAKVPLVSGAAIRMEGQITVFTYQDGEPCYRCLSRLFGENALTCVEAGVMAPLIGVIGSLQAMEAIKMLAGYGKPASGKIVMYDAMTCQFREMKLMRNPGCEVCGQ
# UniProt P14377: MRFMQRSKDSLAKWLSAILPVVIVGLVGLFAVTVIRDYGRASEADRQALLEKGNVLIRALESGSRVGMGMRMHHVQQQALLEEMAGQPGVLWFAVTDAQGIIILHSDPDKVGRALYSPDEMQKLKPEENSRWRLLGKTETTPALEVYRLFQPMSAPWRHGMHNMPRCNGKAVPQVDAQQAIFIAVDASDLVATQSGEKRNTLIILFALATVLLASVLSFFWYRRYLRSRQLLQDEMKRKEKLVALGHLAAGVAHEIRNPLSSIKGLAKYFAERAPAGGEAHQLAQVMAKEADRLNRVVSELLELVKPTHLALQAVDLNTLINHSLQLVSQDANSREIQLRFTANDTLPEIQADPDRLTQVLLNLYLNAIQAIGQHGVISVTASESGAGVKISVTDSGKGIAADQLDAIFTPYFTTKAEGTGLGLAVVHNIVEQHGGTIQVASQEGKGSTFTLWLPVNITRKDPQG
# UniProt P16916: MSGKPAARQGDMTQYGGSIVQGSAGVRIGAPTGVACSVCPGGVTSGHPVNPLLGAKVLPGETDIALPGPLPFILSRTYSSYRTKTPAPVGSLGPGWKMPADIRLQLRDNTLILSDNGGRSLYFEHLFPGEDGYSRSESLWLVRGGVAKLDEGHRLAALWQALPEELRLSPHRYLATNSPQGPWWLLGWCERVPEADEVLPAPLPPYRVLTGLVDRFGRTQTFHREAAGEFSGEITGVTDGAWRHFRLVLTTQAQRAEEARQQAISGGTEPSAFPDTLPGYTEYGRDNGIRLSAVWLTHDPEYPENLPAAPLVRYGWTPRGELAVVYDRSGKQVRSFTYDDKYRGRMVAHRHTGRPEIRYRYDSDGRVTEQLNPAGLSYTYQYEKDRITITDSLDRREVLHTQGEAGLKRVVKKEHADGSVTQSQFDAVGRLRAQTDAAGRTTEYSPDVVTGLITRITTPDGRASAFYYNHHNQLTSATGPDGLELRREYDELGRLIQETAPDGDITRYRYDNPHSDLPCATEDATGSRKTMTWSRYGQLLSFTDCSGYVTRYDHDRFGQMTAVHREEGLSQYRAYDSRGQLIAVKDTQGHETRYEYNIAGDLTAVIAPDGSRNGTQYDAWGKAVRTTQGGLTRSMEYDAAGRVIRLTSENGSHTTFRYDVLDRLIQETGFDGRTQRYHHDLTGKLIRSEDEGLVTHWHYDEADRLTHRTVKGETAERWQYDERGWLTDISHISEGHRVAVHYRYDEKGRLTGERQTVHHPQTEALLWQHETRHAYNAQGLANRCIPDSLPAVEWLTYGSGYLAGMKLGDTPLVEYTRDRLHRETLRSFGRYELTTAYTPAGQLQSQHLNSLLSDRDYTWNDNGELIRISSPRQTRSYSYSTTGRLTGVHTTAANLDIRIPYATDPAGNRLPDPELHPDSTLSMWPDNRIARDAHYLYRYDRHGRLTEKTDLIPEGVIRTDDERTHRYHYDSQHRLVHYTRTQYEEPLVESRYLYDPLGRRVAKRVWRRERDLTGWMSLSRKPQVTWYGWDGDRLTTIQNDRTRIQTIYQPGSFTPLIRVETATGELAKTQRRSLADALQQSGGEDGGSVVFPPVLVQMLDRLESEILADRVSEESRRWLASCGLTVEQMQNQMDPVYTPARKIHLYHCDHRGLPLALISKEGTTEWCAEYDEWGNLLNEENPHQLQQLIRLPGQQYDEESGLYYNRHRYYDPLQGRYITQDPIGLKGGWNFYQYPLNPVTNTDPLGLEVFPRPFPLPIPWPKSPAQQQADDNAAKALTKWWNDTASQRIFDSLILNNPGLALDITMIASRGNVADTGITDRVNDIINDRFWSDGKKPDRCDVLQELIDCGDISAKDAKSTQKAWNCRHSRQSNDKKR
# Compound: CC1(C)S[C@@H]2[C@H](NC(=O)[C@H](N)c3ccccc3)C(=O)N2[C@H]1C(=O)O [ampicillin]
# Test: log2 fold change of tryptic peptide abundance, ligand vs vehicle (limited proteolysis) (log2 ratio); higher = more trypsin-susceptible (destabilized)
# Conditions: ligand concentration: 10 uM; sample: E. coli crude lysate
row,Target,log2 fold change
1,"UniProt P12282 (peptide sequence: VESARDALTR, peptide start residue: 87)",0.139
2,"UniProt P14377 (peptide sequence: LVALGHLAAGVAHEIR, peptide start residue: 242)",0.947
3,"UniProt P16916 (peptide sequence: GELAVVYDR, peptide start residue: 320)",0.133
